In US9828338B2, “Carbamate derivatives of lactam based N-acylethanolamine acid amidase (NAAA) inhibitors” (The Regents of the University of California, priority 2013, dated 2017):
For at least one compound, name, drawing or mass did not settle the structure.

Test system: mice
Experiment: Carrageenan-induced lung inflammation
Type: in vivo
Details: carrageenan 2%, dexamethasone 0.5 mg/kg i.p.
Protocol: The chest was carefully opened and the pleural cavity was rinsed with 1 mL of saline solution containing heparin (5 U/mL). The exudate and washing solution were removed by aspiration and the total volume of the fluid was measured. Any exudate that was contaminated with blood was discarded. The amount of exudate was calculated by subtracting the volume of washing fluid injected from the total volume recovered.

C[C@@H]1C[C@H]2[C@@H]3CCC4=CC(=O)C=C[C@]4(C)[C@@]3(F)[C@@H](O)C[C@]2(C)[C@@]1(O)C(=O)CO [dexamethasone, reference compound]
normalizes: TNF-alpha concentration in pulmonary exudate (compound 5 30 mg/kg p.o.) | number of leukocytes (neutrophils) in the pulmonary exudate (FACS) (compound 5 30 mg/kg p.o.) | myeloperoxidase (MPO) activity in lung tissue (compound 5 0.1-30 mg/kg p.o.)
